Reference: the supplement of paper PMC10849652
The list shows a part of the results.

Protein sequences, listed by entry. Tags and fused reporters are not part of them. Lines headed by an entry give the natural chain unless they say otherwise; changes in a name come on top.
UniProt Q15678: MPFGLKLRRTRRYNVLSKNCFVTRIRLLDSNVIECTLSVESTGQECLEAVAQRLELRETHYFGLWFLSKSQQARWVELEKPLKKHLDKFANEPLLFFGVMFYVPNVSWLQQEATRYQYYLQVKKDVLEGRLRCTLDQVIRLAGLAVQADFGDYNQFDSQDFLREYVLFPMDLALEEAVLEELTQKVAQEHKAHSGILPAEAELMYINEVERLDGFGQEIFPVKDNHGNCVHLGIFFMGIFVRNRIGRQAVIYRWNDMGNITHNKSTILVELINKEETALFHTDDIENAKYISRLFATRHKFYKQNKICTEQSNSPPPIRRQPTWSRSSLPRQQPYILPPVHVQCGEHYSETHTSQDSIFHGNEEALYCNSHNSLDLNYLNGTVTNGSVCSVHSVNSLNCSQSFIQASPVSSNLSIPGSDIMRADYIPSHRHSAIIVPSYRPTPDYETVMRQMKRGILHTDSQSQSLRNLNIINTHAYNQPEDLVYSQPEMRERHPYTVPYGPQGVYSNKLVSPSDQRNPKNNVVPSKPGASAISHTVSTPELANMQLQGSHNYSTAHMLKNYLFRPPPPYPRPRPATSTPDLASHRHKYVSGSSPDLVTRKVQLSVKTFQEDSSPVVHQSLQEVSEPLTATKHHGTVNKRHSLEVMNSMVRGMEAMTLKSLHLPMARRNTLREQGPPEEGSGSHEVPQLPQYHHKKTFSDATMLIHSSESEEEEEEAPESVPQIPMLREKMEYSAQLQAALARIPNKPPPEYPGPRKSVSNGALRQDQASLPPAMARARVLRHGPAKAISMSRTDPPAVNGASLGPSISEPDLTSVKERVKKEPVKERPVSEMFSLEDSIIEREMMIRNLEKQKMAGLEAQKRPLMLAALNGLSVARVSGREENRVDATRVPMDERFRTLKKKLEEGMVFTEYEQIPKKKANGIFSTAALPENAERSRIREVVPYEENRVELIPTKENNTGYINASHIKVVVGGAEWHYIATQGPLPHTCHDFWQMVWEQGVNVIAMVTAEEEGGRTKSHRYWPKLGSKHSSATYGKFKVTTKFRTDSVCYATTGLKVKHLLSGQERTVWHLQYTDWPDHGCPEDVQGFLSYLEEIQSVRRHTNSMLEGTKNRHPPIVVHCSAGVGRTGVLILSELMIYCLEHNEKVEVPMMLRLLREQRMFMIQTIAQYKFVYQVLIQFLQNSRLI
UniProt Q16651: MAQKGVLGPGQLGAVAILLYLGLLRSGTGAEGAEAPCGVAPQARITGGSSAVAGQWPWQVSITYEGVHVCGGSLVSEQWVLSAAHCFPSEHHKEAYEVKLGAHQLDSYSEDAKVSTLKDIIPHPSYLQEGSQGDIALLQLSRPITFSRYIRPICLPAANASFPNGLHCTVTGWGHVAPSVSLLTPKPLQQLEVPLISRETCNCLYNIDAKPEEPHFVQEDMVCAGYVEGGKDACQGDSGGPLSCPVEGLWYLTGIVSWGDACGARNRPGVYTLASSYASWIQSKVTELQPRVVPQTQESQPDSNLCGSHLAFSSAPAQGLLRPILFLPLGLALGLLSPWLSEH
UniProt P79522: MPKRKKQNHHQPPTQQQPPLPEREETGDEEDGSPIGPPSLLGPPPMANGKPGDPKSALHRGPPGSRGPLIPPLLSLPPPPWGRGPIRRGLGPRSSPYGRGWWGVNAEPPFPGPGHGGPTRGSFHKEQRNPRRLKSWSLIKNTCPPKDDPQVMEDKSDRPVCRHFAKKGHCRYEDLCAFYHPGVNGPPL
UniProt Q86YD1: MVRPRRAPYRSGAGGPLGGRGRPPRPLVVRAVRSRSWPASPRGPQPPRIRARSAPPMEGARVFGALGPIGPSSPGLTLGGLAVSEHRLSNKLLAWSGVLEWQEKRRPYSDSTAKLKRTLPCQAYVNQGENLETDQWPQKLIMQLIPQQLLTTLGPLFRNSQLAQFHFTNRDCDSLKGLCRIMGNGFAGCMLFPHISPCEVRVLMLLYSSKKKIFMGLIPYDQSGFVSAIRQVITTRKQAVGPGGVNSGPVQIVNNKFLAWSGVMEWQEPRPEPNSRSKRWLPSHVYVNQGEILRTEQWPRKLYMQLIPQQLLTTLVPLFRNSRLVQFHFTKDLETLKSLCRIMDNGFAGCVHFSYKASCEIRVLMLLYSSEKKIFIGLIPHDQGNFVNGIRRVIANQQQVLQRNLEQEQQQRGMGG
UniProt Q569H4: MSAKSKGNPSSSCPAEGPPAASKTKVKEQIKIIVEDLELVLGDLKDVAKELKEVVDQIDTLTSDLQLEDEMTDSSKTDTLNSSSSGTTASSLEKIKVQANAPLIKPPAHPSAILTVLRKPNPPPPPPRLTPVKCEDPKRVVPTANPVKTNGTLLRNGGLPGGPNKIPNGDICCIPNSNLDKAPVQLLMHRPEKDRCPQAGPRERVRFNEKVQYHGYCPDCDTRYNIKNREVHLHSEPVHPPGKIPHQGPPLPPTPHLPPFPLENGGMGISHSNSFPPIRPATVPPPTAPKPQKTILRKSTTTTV
UniProt P10586, whole entry, looked up: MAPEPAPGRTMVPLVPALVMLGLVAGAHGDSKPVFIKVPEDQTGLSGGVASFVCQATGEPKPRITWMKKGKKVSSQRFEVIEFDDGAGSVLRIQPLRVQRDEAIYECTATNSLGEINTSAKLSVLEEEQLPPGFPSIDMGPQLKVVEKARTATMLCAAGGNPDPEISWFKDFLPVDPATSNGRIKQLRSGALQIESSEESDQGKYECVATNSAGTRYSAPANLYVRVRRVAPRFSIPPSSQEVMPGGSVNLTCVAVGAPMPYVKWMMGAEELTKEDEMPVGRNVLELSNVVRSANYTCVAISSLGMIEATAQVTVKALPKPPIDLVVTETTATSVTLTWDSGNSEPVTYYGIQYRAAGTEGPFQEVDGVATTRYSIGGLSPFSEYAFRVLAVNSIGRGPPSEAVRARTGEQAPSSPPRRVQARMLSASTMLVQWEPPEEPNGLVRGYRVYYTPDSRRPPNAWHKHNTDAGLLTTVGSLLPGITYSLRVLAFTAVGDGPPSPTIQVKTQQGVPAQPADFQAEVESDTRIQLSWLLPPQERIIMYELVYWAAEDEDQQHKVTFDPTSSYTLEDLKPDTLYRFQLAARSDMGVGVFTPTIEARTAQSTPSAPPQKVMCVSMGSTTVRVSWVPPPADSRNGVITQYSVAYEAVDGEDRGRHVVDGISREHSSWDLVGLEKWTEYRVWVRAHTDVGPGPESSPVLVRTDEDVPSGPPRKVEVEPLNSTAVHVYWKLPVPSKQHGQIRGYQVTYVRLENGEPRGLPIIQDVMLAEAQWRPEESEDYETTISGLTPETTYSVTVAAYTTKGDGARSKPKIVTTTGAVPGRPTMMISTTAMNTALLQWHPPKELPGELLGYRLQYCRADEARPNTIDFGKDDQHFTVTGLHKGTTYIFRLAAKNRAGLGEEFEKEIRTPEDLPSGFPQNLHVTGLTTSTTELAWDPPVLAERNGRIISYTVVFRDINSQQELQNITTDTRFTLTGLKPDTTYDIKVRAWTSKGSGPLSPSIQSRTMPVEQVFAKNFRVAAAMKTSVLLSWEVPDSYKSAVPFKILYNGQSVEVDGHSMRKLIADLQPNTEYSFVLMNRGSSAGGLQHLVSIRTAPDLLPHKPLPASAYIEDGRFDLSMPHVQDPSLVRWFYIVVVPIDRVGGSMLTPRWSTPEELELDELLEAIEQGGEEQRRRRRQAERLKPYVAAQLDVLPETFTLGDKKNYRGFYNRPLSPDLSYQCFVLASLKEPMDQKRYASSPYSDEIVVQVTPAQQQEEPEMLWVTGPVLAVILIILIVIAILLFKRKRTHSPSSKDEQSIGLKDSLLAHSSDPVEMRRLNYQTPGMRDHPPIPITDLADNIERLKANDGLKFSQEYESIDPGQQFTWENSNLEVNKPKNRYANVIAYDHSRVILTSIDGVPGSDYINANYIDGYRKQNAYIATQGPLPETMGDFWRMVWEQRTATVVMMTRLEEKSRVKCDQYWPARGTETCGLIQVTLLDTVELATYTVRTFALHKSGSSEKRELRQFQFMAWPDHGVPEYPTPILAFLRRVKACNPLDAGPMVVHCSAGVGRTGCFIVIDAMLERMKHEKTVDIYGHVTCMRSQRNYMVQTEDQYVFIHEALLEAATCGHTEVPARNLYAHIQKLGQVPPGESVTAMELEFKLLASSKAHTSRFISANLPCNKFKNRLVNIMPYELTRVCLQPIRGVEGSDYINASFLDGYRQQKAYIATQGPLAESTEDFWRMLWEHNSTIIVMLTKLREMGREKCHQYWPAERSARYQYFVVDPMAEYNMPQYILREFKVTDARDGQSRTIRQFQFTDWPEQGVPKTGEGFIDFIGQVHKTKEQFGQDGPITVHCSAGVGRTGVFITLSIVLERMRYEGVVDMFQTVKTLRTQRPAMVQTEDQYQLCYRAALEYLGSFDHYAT
UniProt Q6NUJ5: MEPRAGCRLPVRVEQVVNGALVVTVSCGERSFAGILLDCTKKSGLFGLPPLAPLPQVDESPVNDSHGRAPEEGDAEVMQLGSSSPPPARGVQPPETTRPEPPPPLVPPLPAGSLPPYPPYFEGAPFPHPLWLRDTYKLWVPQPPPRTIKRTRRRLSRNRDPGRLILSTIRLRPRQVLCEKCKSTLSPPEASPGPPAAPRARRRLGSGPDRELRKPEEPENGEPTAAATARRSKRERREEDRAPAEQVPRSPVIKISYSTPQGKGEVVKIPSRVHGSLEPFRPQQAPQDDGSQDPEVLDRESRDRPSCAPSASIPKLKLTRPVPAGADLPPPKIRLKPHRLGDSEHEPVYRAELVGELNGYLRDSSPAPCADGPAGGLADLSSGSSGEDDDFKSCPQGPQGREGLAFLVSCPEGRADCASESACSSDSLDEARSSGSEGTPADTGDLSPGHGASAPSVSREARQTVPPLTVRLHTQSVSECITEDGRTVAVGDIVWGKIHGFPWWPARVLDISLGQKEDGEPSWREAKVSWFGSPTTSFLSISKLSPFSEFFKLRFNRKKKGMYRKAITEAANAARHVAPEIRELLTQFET
UniProt Q86Y79: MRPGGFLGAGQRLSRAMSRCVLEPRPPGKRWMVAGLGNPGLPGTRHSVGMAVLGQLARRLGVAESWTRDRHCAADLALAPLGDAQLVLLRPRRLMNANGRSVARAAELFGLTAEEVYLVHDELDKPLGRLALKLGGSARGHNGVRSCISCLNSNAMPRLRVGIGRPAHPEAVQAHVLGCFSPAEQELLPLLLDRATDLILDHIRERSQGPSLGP
UniProt Q9BRX8: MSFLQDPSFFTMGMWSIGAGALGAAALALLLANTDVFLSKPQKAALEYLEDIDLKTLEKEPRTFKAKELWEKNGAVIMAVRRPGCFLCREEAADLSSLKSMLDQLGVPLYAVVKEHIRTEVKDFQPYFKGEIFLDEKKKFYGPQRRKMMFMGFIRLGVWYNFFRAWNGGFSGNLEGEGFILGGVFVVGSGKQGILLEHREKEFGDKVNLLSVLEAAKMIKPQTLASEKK
UniProt P43115: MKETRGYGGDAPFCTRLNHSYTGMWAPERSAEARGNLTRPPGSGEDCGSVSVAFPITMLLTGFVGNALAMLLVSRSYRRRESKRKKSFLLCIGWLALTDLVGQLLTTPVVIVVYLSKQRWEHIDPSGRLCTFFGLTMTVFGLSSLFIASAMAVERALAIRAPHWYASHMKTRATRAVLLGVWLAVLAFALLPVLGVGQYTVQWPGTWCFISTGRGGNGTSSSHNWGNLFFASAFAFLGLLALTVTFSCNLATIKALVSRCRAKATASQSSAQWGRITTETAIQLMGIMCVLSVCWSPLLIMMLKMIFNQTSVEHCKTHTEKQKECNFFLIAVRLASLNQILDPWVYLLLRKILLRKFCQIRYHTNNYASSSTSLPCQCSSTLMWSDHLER

What was measured:
Assay in all cases: log2 fold change, soluble protein after heating vs DMSO (PISA); higher = thermal stabilisation; K562 lysate, 10 uM; active = over 0.2 and 3.5 SD of the protein, either way, in both replicates (recomputed)
[1] = compound: CC1=C(C=C(C=C1)NC(=O)C2=CC(=CC=C2)C(C)(C)C#N)NC3=CC4=C(C=C3)N=CN(C4=O)C
In short: (§1)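 Thermal stability, expressed as log-two fold change relative to solvent controls, is given from duplicates. Crude K562 extract in PBS pH 7.4 with 1 mM MgCl2, at 1 mg/mL protein, was treated with 10 μM compound for 30 min and heated in aliquots for 3 min across 48°C-58°C. After pooling, adjustment to 0.5% NP-40 at 4°C and centrifugation at 21,000xg for 90 min, supernatant protein was measured by TMTpro 16plex LC-MS/MS with channel sums equalised.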

ralimetinib = compound: CC(C)(C)Cn1c(N)nc2ccc(-c3[nH]c(C(C)(C)C)nc3-c3ccc(F)cc3)nc21 [ralimetinib]
In short: as §1

[2] = compound: CC(C)(O)CC(=O)NCCn1ccc2ncnc(Nc3ccc(Oc4cccc(C(F)(F)F)c4)c(Cl)c3)c21
In short: as §1

[3] = compound: CC(C)C1=C2N=C(C=C(N2N=C1)NCC3=CC=CC=C3)NCCCCCCN
In short: as §1

[4] = compound: CC1=C(C2=C(C=C1)C(=O)C3=CC=CC=C3N2CCCN)C
In short: as §1

[5] = compound: CC1=C(C=C(C=C1)NC(=O)C2=CC(=CC=C2)N(C)C)NC(=O)C3=CC=C(C=C3)O
In short: as §1

[6] = compound: CC(=O)c1cnc2ccc(-c3cc(Cl)c(O)c(Cl)c3)nc2c1N[C@H]1CC[C@H](CN(C)C)CC1
In short: as §1

[7] = compound: CC1=C(C(CC(=O)N1)C2=CC=C(C=C2)C(F)(F)F)C(=O)NC3=C(C=C4C(=C3)C=NN4)F
In short: as §1

[8] = compound: CC1=CC=C(C=C1)SC2=C3C=C(SC3=CN=C2)C(=O)N
In short: as §1

ibrutinib = compound: C=CC(=O)N1CCC[C@@H](n2nc(-c3ccc(Oc4ccccc4)cc3)c3c(N)ncnc32)C1 [ibrutinib]
In short: as §1

Measured: log2 fold change

PTPN14 (UniProt Q15678)
inactive: [1] 0.16

PRSS8 (UniProt Q16651)
inactive: ralimetinib 0.008 | [2] -0.11 | [3] 0 | [4] -0.02 | [1] 0.11 | [5] -0.198

PRR3 (UniProt P79522)
inactive: [6] 0.146 | [7] 0.022 | [1] -0.02 | [8] -0.096

PSTK (UniProt H7BYY4)
inactive: [4] -0.213

PTOV1 (UniProt Q86YD1)
inactive: [4] -0.14 | [1] -0.167

PRR16 (UniProt Q569H4)
inactive: [1] 0.05

PRRC2B (UniProt H0Y412)
inactive: ralimetinib 0.096 | [2] -0.033 | [3] -0.086 | [5] 0.051

PSEN2 (UniProt P49810)
inactive: ibrutinib -0.018 | ralimetinib 0.059 | [2] -0.028 | [7] 0.016 | [4] 0.026 | [1] -0.041 | [5] -0.006

PSIP1 (UniProt V9GYT7)
inactive: ibrutinib 0.055 | ralimetinib -0.05 | [2] -0.079 | [3] -0.039 | [1] 0.059 | [5] 0.063

PTPRF (UniProt P10586)
inactive: [1] 0.224

PWWP2B (UniProt Q6NUJ5)
inactive: [6] -0.05 | [4] -0.006 | [8] 0.1

PTRH1 (UniProt Q86Y79)
inactive: ralimetinib -0.065 | [2] -0.081 | [3] -0.061 | [1] 0.129 | [5] 0.111

PSMC5 (UniProt J3KRP2)
inactive: [6] -0.018 | [7] 0.05 | [8] -0.036

Copied from above (two entries):
PRR16 (UniProt Q569H4)
inactive: [1] 0.05

PRRC2B (UniProt H0Y412)
inactive: ralimetinib 0.096 | [2] -0.033 | [3] -0.086 | [5] 0.051

Remaining list, next part.

PRXL2A (UniProt Q9BRX8)
inactive: ibrutinib -0.065 | ralimetinib 0.013 | [2] -0.234 | [3] 0.031 | [7] -0.077 | [4] -0.006 | [5] -0.097

PTGER3 isoform 2 (UniProt P43115)
inactive: [6] -0.026 | [1] -0.044 | [8] 0.017

PSMF1 (UniProt Q5QPM7)
inactive: [1] 0.066

PTPA (UniProt Q5T949)
inactive: [6] 0.09 | [7] -0.001 | [8] -0.132
